doi:10.1101/2023.03.09.531943
Substitutions are numbered along the chain they refer to. Like-named read-outs stand apart in the source and are kept apart here. These are yes or no findings as the source states them, for the method shown. Some entries that bind do so weakly or less than the wild type.

Amino acid sequences for entries named in this document (tags omitted). Residues count along the entry.
UniProt Q8VZ50: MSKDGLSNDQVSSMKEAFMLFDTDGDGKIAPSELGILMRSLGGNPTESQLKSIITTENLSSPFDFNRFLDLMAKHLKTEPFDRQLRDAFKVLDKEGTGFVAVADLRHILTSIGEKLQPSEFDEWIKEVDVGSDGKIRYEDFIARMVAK
UniProt F4JIU4, residues 763-1134: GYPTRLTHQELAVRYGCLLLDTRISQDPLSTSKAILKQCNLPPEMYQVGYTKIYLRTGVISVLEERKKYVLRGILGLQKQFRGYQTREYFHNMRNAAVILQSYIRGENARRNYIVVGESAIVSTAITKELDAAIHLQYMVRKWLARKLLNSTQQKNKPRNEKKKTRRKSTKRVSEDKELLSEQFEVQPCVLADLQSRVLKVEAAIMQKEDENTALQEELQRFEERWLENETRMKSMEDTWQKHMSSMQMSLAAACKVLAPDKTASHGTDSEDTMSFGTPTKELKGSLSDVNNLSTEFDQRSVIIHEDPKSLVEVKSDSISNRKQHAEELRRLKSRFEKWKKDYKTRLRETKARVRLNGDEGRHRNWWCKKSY
UniProt Q9LK76, residues 98-389: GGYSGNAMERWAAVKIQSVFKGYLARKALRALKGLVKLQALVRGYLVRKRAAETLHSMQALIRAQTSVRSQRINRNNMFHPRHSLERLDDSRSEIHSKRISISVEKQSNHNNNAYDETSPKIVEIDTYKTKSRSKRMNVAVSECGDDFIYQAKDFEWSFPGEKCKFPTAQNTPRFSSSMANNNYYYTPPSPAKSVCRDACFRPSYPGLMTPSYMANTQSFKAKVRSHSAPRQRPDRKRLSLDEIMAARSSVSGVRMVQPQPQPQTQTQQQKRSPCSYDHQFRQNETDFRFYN
UniProt Q9FYG2, residues 755-1016: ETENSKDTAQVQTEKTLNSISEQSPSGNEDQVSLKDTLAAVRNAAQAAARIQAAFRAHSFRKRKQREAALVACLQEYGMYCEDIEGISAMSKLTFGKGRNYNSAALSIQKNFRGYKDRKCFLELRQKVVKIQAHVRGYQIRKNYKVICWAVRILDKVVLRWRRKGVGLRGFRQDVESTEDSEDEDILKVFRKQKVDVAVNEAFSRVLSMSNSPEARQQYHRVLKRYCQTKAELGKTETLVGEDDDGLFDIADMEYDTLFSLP
UniProt Q8LPG9, residues 307-668: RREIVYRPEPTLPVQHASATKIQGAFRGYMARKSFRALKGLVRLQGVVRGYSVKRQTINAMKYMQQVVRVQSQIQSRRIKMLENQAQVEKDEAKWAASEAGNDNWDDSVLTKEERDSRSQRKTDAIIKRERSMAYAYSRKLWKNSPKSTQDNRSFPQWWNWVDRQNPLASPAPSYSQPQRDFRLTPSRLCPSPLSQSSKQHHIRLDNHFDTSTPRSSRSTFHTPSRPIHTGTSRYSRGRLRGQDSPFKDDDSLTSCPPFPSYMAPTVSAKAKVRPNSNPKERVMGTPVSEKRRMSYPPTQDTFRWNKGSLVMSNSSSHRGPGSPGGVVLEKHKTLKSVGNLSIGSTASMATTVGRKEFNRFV
UniProt Q9M199, residues 158-517: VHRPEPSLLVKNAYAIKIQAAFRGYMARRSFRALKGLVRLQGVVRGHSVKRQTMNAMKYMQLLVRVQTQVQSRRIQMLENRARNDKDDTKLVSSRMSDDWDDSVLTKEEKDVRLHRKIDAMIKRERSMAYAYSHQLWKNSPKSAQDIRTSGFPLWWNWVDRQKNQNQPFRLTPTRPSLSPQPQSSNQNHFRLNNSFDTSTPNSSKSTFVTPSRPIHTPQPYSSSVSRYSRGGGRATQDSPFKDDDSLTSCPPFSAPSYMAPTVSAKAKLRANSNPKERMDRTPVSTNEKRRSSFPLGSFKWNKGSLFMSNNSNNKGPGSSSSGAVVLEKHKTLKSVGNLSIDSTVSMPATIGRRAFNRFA

What was measured:
Test in all cases: two-hybrid
[1] = target: T1, CML13, yeast two-hybrid bait (pGBKT7-CML13) (Arabidopsis thaliana) (UniProt Q94AZ4)
T1 sequence: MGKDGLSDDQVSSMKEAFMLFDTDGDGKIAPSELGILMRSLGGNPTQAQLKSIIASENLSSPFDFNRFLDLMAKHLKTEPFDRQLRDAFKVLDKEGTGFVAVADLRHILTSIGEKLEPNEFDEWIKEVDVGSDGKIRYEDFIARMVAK

[2] = target: T1, CML13, yeast two-hybrid bait (pGBKT7-CML13) (Arabidopsis thaliana); remark: listed apart in the source
[3] = target: T2, CML14, yeast two-hybrid bait (pGBKT7-CML14) (Arabidopsis thaliana) (UniProt Q8VZ50)
T2 sequence: T1 sequence with G2S, D8N, Q47E, A48S, A55T, S56T, E117Q, N119S

Measured: binding

myosin VIII-B (AA# 763-1135), yeast two-hybrid prey (from UniProt F4JIU4 763-1134) (domain or fragment)
binds: all assays above

IQD26 (AA# 98-389), yeast two-hybrid prey (from UniProt Q9LK76 98-389) (domain or fragment)
binds: all assays above

CAMTA4 (AA# 755-1016), yeast two-hybrid prey (from UniProt Q9FYG2 755-1016) (domain or fragment)
binds: all assays above

IQD14 (AA# 307-668), yeast two-hybrid prey (from UniProt Q8LPG9 307-668) (domain or fragment)
binds: all assays above

CAMTA6 (AA# 660-845), yeast two-hybrid prey (from UniProt Q9LSP8-3 660-845) (domain or fragment)
binds: all assays above

IQD13 (AA# 158-517), yeast two-hybrid prey (from UniProt Q9M199 158-517) (domain or fragment)
binds: all assays above
